# Percent effect of library compounds

Chains of the proteins cited; added tags and fusions are not shown.
UniProt P9WNZ1, whole entry: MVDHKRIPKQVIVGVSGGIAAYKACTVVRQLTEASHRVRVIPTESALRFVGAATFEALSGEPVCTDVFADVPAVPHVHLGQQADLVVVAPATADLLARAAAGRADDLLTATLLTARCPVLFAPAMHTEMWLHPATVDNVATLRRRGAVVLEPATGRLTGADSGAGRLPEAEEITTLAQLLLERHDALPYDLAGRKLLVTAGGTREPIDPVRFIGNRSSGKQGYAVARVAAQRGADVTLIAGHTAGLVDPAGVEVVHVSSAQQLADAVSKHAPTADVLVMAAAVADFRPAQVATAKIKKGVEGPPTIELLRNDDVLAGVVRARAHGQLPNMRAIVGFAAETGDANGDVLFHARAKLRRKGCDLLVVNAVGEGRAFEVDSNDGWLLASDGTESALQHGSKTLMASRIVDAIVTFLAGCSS

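Enzyme assay of CoaBC with a phosphate dye (Biomol Green) read at 650 nm. Target: Coenzyme A biosynthesis protein CoaBC, Mycobacterium tuberculosis (UniProt P9WNZ1). Tested at 30 µM. Direction is inferred from only a few compounds that gave an IC50; most scored high, so higher reads as stronger inhibition. Most strong results did not repeat in a second test. About 67,000 compounds were tested under these conditions; 0.06% (about 40) showed 50% or more at least once.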

The filed quantity is “Percent Effect” (%). The record does not define 0% and 100%; most values in the screen are far below 50% and negative numbers occur (in some assays of this library far below -100). The compounds are a random part of those screened.

SMILES	effect
Cc1ccc(N2CCO[C@H]3CN(C(=O)c4cccc(C)n4)C[C@H]32)nn1	-3.576%
O=C(Cc1ccc(Br)cc1)N1CC(S(=O)(=O)C2CCCCC2)C1	3.594%
Cc1ccc(C(=O)N2C[C@H]3CC[C@@H]2CN(S(=O)(=O)N(C)C)C3)c(O)c1	3.813%
CCn1c(Cn2cncn2)nnc1C1CCN(Cc2cccnc2)CC1	1.781%
c1cnc(N2CCCC3(COCCN(c4nncs4)C3)C2)cn1 (stereo not drawn)	2.941%
O=C(NCC1CCCOC1)c1ccc(-c2cccs2)[nH]c1=O (stereo not drawn)	-0.8264%
COc1ccc(S(=O)(=O)NCc2cccnc2N(C)C)cc1F	-0.7712%
CC(C)CC(NC(=O)c1cc(-c2cccn2C)n[nH]1)c1ncnn1C (stereo not drawn)	3.713%
Cc1ncc2c(n1)CN(CC(=O)Nc1nccs1)CC2	7.535%
c1ccc(OCCSC2=NCCN2)cc1	-5.556%
CC(=O)c1cccc(NC(=O)COc2c(C)n(C)ccc2=O)c1	2.557%
Cc1ccc(CN2C[C@@H]3COC[C@@H](CC(=O)N4CCOCC4)[C@@H]3C2)s1	-1.253%
CCc1nc(Cn2nc(COC)oc2=O)cs1	5.6%
CC(C)(C)CCS(=O)(=O)NCCc1csc(N2CCCC2)n1	5.652%
O=C(c1ccoc1)N1CCCN(C(=O)c2ccc(C3CCCN3)s2)CC1 (stereo not drawn)	-1.028%
Cc1ccccc1N1CC(C)N(Cc2ccc(C)c(F)c2F)CC1=O (stereo not drawn)	-1.456%
Cc1ccc(C(=O)NS(=O)(=O)c2ccc3c(c2)OCCCO3)o1	1.276%
c1ccc(O[C@H]2CO[C@@]3(CCCN(Cc4nccs4)C3)C2)nc1	0.8653%
CC(C)c1nc(CN2CCN(Cc3ccccn3)CC2)cs1	-1.944%
CCN1CCN(C(=O)c2ccn(C)c(=O)c2)CC1	2.611%
O=C1COC2(CCN(Cc3ccoc3)CC2)CN1CCn1cccn1	-3.75%
CSCC[C@@H](CO)n1ccnc1-c1ccncc1	-0.7371%
CC(NC(=O)NC1CCN(Cc2ccncc2)CC1)c1ccc(F)cc1 (stereo not drawn)	0.1229%
CC(C)(C)c1nc(CN2CCC3(CCCO3)CCC2=O)no1 (stereo not drawn)	2.828%
CCC(CC)NC(=O)NCc1ccnc(-n2ccnc2C)c1	0.7335%
COCCc1noc(CN2CCOC(Cn3nc(C)cc3C)C2)n1 (stereo not drawn)	0.2635%
Cc1cc(-c2cc(C3CCOC3)c(C#N)c(N)n2)ccc1Cl (stereo not drawn)	11.51%
O=C(c1ccco1)N1CCc2c(COCC3CC3)cncc2C1	6.345%
COc1ccc2c(ccn2CCC(=O)Nc2n[nH]c(C(C)C)n2)c1	-3.281%
CCc1ccc(-c2cn3c(C(=O)N[C@H](C(N)=O)[C@@H](C)O)csc3n2)cc1	-2.664%
CCCn1ncc(C(=O)N(C)Cc2n[nH]c3c2CCC3)c1C	6.087%
COC(=O)c1ccc(CN2CCN(Cc3nc(C)no3)CC2)s1	6.061%
Cc1cc(-c2cnc(N3CCC(C(N)=O)CC3)nc2C(C)C)on1	-15.5%
CCCc1nc(C(C)(C)NC(=O)C2CC(=O)N(CC3CC3)C2)no1 (stereo not drawn)	4.722%
Cn1c(CN2CCOC(CCc3ccncn3)C2)nc2ccccc21 (stereo not drawn)	1.46%
Cc1n[nH]c(C)c1C1COCCN1C(=O)c1n[nH]c2ccccc12 (stereo not drawn)	-1.842%
CS(=O)(=O)N1CCOCC2(CN(Cc3nccs3)CCO2)C1 (stereo not drawn)	8.632%
CCN1CCn2c(C)cnc2C12CCN(C(=O)c1ccco1)CC2	0.9412%
CCc1nc(C2CCCN2C(=O)c2nccnc2N)no1 (stereo not drawn)	-1.813%
CN1CCN(C(=O)[C@@H]2CCO[C@@H]3CCN(c4ncccn4)C[C@@H]32)CC1	1.904%
COC(C)(C)C(=O)N1CCC(c2cc(CN(C)C)n(C)n2)CC1	9.132%
Cn1cc(C(=O)NCc2cn3c(n2)CN(C2CCOCC2)CC3)cn1	2.177%
CCN1CCOCC12CCN(C(=O)Cc1ccccc1)CC2	8.316%
CN(CC(F)(F)F)C(=O)CN1CCC(c2cc3ccccc3[nH]2)CC1	-0.319%
Cc1occc(=O)c1OCC(=O)N1CCN(c2ccccc2)CC1	-1.266%
c1cnn(CCNCc2nnc(C3CC3)o2)c1	2.571%
Cc1sc2nc(CCN)nc(N(C)CCCC3CCCO3)c2c1C (stereo not drawn)	-33.76%
CCn1nc2c(cc1=O)CN(Cc1coc(-c3ccccc3)n1)CC2	8.033%
Cc1nc(C(F)(F)F)nc(N2CCC3(CC2)CC(C(=O)O)N(C)C3)c1C (stereo not drawn)	-0.2484%
CCc1nccn1CCNC1CCN(c2nc3ccc(Cl)cc3s2)CC1	9.441%
COc1cc(S(=O)(=O)N2CCCc3ccccc32)cc(C(=O)O)c1OC	0.9126%
C=C(C)COc1cccc(C(=O)N(C)C(C)c2ccncn2)c1 (stereo not drawn)	-6.855%
Cc1nc(CNCC(O)COc2ccc3c(c2)OCO3)cs1 (stereo not drawn)	-6.667%
CC(NC(=O)N(C)Cc1ccsc1)c1ccc2c(c1)NC(=O)CO2 (stereo not drawn)	-0.266%
Cc1ccc(NC2CCN(C(=O)c3c(C)nn(C)c3Cl)CC2)nn1	-5.115%
Cc1cc(CNc2ccc(C(=O)N3CCCC(C)C3)cc2C)no1 (stereo not drawn)	0.9639%
c1csc(CCC2CCCCN2Cc2noc(C3CC3)n2)c1 (stereo not drawn)	6.42%
Cc1cc(CN2C[C@H]3CC[C@@H]2CN(Cc2[nH]cnc2C)C3)on1	0.3727%
CN(C)CCn1ccc(NC(=O)NC(C)(C)c2nccs2)n1	8.333%
CCc1nc(CN2CCCC(NCc3nc(C)c(C)o3)C2)no1 (stereo not drawn)	1.567%
CC(C)(C)Nc1c(C2CCN(C(=O)C3CC3)CC2)nc2ccccn12	3.699%
c1ccc(Cc2nc(CNCCn3cccn3)cs2)cc1	7.295%
Cc1ccc(CN(C)C(=O)CCn2c(=O)n(C)c3ccccc32)o1	0.578%
Cc1ccccc1CN(C)C(C(N)=O)c1ccccc1 (stereo not drawn)	-0.128%
O=C(CCN1CCCC1c1ccccn1)N1CCc2ccccc2C1 (stereo not drawn)	3.382%
CCc1ccc(NC(=O)c2cnc(N3CCCC3)nc2C)cc1	0.3632%
Cc1noc(C(C)N2CCN(CCc3ccncc3)CC2)n1 (stereo not drawn)	10.21%
COc1cccc(NC(=O)NCC2CCCN(C3CCOCC3)C2)c1 (stereo not drawn)	-1.284%
CNC(=O)c1ccc(C2CN(C(=O)c3cnn(C)c3)CCO2)nc1 (stereo not drawn)	0.4902%
O=c1cc(CN2CCCC(CCc3c(F)cccc3F)C2)[nH]c(=O)[nH]1 (stereo not drawn)	9.168%
O=C(c1cc(C2CC2)on1)N1CCC(Oc2ncccc2Cl)CC1	2.326%
Nc1nc2c(c3c1C(=O)NC3=O)CCCC2	1.646%
Cc1ncsc1CN1C[C@@H]2COC[C@]2(C(=O)NCc2ccccn2)C1	3.337%
CN1CCN(C(=O)C2(S(C)(=O)=O)CCCC2)Cc2ccccc21	3.067%

6 of the entries, repeated:

With CCN1CCn2c(C)cnc2C12CCN(C(=O)c1ccco1)CC2 the screen gave 0.9412%.
With Cc1cc(-c2cc(C3CCOC3)c(C#N)c(N)n2)ccc1Cl (stereo not drawn) the screen gave 11.51%.
With Cn1c(CN2CCOC(CCc3ccncn3)C2)nc2ccccc21 (stereo not drawn) the screen gave 1.46%.
With c1ccc(O[C@H]2CO[C@@]3(CCCN(Cc4nccs4)C3)C2)nc1 the screen gave 0.8653%.
With CN(C)CCn1ccc(NC(=O)NC(C)(C)c2nccs2)n1 the screen gave 8.333%.
With Cc1ncc2c(n1)CN(CC(=O)Nc1nccs1)CC2 the screen gave 7.535%.

The values are deposited in ChEMBL (CHEMBL3988442, “University of Dundee, Small-Polar-MMV Screening Library” (2021)).